# This is one part of the list. The main result of the screen is listed elsewhere. These columns were measured beside it and carry no call. Compounds called inactive in the main read-out are mostly missing here. Potencies come from curve fits of mixed quality, noted in brackets.
# Assay: qHTS Assay for Lipid Storage Modulators in Drosophila S3 Cells;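 on cell number change: cells counted by Cell Tracker Red CMTPX staining in the red channel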
# Details: BODIPY lipid droplet fluorescence, 18-24 h; for cell number change: measured here: cell count max response, cells fed with added oleic acid
# How it was run: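 Drosophila S3 cells got compounds at several concentrations plus oleic acid (400 uM solution). Laser-scanning cytometry with 488 nm excitation read lipid droplets at 500-530 nm and cells at 575-640 nm. Percent activity was relative to 20 uM Triacsin C.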
# [1] = measured here: cell number channel AC50, cells fed with added oleic acid
# [2] = measured here: lipid fluorescence (Fed channel) AC50, cells fed with added oleic acid
Compound,cell number change [%],AC50 [1],AC50 [2]
C[C@@H](NC(=O)C1(c2ccccc2)CCN(C(=O)OC(C)(C)C)CC1)C(=O)N[C@@H](Cc1ccccc1)C(=O)O,-26.4,"3.26 µM [falling, full curve, poor fit]","2.31 µM [falling, partial curve]"
NC(=O)c1cccc([N+](=O)[O-])c1,7.31,–,"0.00461 µM [rising, full curve, poor fit]"
CCc1noc(C)c1C(=O)N1CCN(S(=O)(=O)c2ccccc2C(F)(F)F)CC1,11.7,"0.731 µM [falling, full curve]","0.411 µM [falling, single point]"
C/C(=N\N=C1\NC(=O)C(CC(=O)NCc2ccccc2)S1)C(C)C (stereo not given),-9.97,"2.59 µM [falling, partial curve, poor fit]",–
Cn1cccc1CC(=O)NNC(=O)Nc1cccc(Cl)c1,13.1,–,"0.00517 µM [rising, full curve, poor fit]"
O=C(CCc1ccccc1)N1CCN(c2ccc(Cl)cc2)CC1,-2.42,–,"6.51 µM [falling, single point]"
O=C1CCN(S(=O)(=O)c2ccccc2)CCN1CCOCc1ccc(C(F)(F)F)cc1,9.84,–,"4.61 µM [falling, single point]"
Cc1ccc(C(=O)Nc2cccc(C(F)(F)F)c2)cc1Nc1cnccn1,-18.9,–,–
CC(c1nnc(Sc2nnnn2-c2ccccc2)n1-c1ccc(F)cc1)N(C)C (stereo not given),-25.6,"0.651 µM [falling, full curve]","0.651 µM [falling, full curve]"
Cc1cc(C)c(S(=O)(=O)N(C)CC(=O)NCc2cccnc2)c(C)c1,40.8,–,–
O=C(/C=C/Nc1ccccc1Oc1ccccc1)c1ccco1,-60.4,–,"12.6 µM [falling, partial curve, poor fit]"
Cc1ccccc1-n1c(C)cc(/C=N/NC(=O)c2ccncc2)c1C,13,–,"0.00517 µM [rising, full curve, poor fit]"
CCOc1ccc(C(=O)NC(C)(C)CC)cc1,0.637,"6.51 µM [rising, single point]",–
CCN(CCC(=O)O)c1ccccc1,10.4,–,"29.1 µM [falling, single point]"
O=C(N/N=C/c1ccccc1OC(F)F)c1cc(-c2ccncc2)nc2ccccc12,30.9,"2.31 µM [rising, single point]","6.51 µM [rising, single point]"
NCCCCc1ccc2ccc3cccc4ccc1c2c34,-35,"18.4 µM [falling, single point]","0.164 µM [rising, full curve, poor fit]"
O=C(CCN1C(=O)/C(=C/c2ccc(F)cc2)SC1=S)Nc1cccnc1,8.7,–,"6.51 µM [rising, single point]"
Cc1cc(C(=O)CSc2ccc(Cl)cc2)cc(C)c1OC(=S)N(C)C,-17,–,"0.00517 µM [falling, full curve, poor fit]"
COc1ccc(CNC(=O)CC23CC4CC(CC(C4)C2)C3)cc1,7.14,–,"6.51 µM [rising, single point]"
CCCC(=O)N1CCN(c2ccc(NC(=O)c3sc4ccccc4c3Cl)cc2)CC1,-23.6,–,"6.51 µM [rising, single point]"

Compound,cell number change [%],AC50 [1],AC50 [2]
Cc1cc(-c2ccccc2)[nH]c(=O)c1S(=O)(=O)c1ccccc1,14.1,–,"29.1 µM [rising, single point]"
CCc1nc(SCc2nc3ccccc3[nH]2)c2oc3ccccc3c2n1,-3.06,"0.326 µM [rising, full curve]","0.326 µM [rising, full curve]"
Cc1c(Br)c([N+](=O)[O-])nn1CC(=O)N1CCc2ccccc2C1,14.8,–,"29.1 µM [rising, single point]"
COc1ccc(CN2CCNC(=O)C2CC(=O)NC2CCCC2)c(OC)c1 (stereo not given),–,–,"9.2 µM [rising, partial curve]"
COc1ccc(C2C(C#N)=C(N)N(N(C)C)C3=C2C(=O)CCC3)cc1 (stereo not given),-5.56,–,"1.46 µM [falling, full curve]"
COc1ccc(C)cc1NC(=O)c1sc2ncnc(N3CCN(c4ccccn4)CC3)c2c1C,-5.56,–,"6.51 µM [falling, single point]"
COc1ccc2[nH]c(N=Nc3ccccc3C)c(O)c2c1,17.2,–,"8.2 µM [rising, partial curve]"
Cc1cc(C)c(S(=O)(=O)N2CCC(C(N)=O)CC2)cc1C,-4.95,"0.0517 µM [falling, full curve, poor fit]",–
CC(=O)Nc1ccc(C2=CC(=O)CC(C)(C)C2)cc1,-9.27,"0.651 µM [rising, single point]",–
Cc1cccc(/C=N/NC(=O)c2ccc(NC(=O)c3cccc(Cl)c3)cc2)n1,149,"16.4 µM [rising, partial curve]","11.6 µM [falling, single point]"
O=C(CCNS(=O)(=O)c1ccccc1C(F)(F)F)NCCCSc1ccccc1,39.2,"35.5 µM [rising, single point]",–
COc1ccccc1Nc1ncccc1[N+](=O)[O-],-38.8,"14.6 µM [falling, partial curve]","7.31 µM [falling, partial curve]"
CC1(C)O[C@@H]2[C@H](O1)[C@@H](COS(=O)(=O)O)O[C@H]2n1ccc(=O)[nH]c1=O,-42.6,"32.6 µM [falling, single point]","10.3 µM [falling, single point]"
COc1ccc(CNC(=O)c2ccc3c(c2)N(C)CCS3)cc1,4.61,–,"29.1 µM [rising, single point]"
O=C(Nc1ccc2nc3n(c(=O)c2c1)CCCCC3)c1ccccc1Cl,-34.9,"29.1 µM [falling, single point]","29.1 µM [falling, single point]"
CCOC(=O)c1sc(=NC(=O)c2ccc(C)cc2)n(C)c1C,-4.78,–,"0.461 µM [falling, single point]"
Cc1ccc(NC(=S)N2CCC(NC(=O)c3cccc(F)c3)CC2)cc1,-10.7,–,"32.6 µM [falling, single point]"
CCCCCOc1ccc(C2C(C(C)=O)=C(C)Nc3ncnn32)cc1OC (stereo not given),-23.3,–,"0.116 µM [falling, full curve, poor fit]"
Cc1nn(-c2cc(N3CCOCC3)ccc2[N+](=O)[O-])c(=O)c2ccccc12,14.8,–,"1.03 µM [falling, full curve, poor fit]"
CN1CCN(C(=S)Nc2ccccc2Cl)CC1,-33.8,"0.731 µM [falling, full curve]","0.651 µM [falling, single point]"

Compound,cell number change [%],AC50 [1],AC50 [2]
COc1ccc(CNS(=O)(=O)c2ccc(S(=O)(=O)NC3CC3)cc2)cc1,-4.2,–,–
O=C(NCCNc1ccc2ccccc2c1)c1cccn2c(=O)c3sccc3nc12,-17.5,–,–
Cc1nn(-c2ccccc2)c2nc(-c3ccccc3)cc(C(=O)N3CCOCC3)c12,7.04,–,–
CCOc1ccc(C(=O)OC2CCCN(C)C2)cc1 (stereo not given),3.67,–,–
CC(=O)N(C)c1ccc(NC(=O)Cc2cccs2)cc1,3.52,–,"0.291 µM [rising, full curve, poor fit]"
Cc1ccc(NC(=O)c2sc(Cl)nc2-c2ccccc2)cc1C,40,"2.31 µM [rising, full curve]","4.61 µM [rising, partial curve]"
CCOC(=O)N1CCN(Cc2cc(=O)oc3ccc4ccccc4c23)CC1,-28,–,–
C=CCN(c1ccccc1)S(=O)(=O)c1cccc(C(=O)O)c1,-58.1,"10.3 µM [falling, partial curve]","6.51 µM [falling, single point]"
O=C(Nc1nnc(/C=C/c2ccccc2)s1)c1ccco1,3.27,"1.84 µM [rising, single point]",–
CCn1c(=O)cc(OCC(=O)N(C)c2ccccc2F)c2ccccc21,-61.3,"29.1 µM [falling, single point]",–
Cc1ccc(-c2cnc(SCC(=O)N3CCCc4ccccc43)n2C)cc1,-6.25,"0.92 µM [falling, full curve]",–
O=C(NC(C(=O)NCCN1CCOCC1)C12CC3CC(CC(C3)C1)C2)C1CCCCC1 (stereo not given),4.99,–,–
COc1ccc(NC(=S)NCCSc2ccc(Cl)cc2)c(OC)c1,–,"0.58 µM [rising, single point]",–
Cc1ccc[n+](CC(=O)c2ccc(NC(=O)c3ccccc3)cc2)c1,-2.46,"2.91 µM [rising, single point]","4.61 µM [rising, single point]"
COc1ccc(C2/C(=C(/O)c3ccccc3)C(=O)C(=O)N2CO)cc1 (stereo not given),-17.6,–,–
CC(=O)Nc1ccc(S(=O)(=O)N2CCN(c3ccc([N+](=O)[O-])cc3)CC2)cc1,-15.4,–,–
Cc1ccc2c(COC(=O)c3ccccc3Cl)cc(=O)oc2c1,–,–,"0.00461 µM [falling, full curve, poor fit]"
COc1ccc(CNC(=O)CSc2nnc(C)n2-c2ccc(F)cc2)cc1,14.2,–,"6.51 µM [rising, single point]"
CC(C)CCNC(=O)c1ccc(Cl)c(N)c1,-2.87,"1.46 µM [falling, partial curve]","1.16 µM [falling, full curve]"

# Some values from the results shown.
# Value of Cc1ccc(NC(=O)c2sc(Cl)nc2-c2ccccc2)cc1C under AC50 [2]: 4.61 µM [rising, partial curve]
# Value of CCOc1ccc(C(=O)OC2CCCN(C)C2)cc1 (stereo not given) under cell number change [%]: 3.67
# Value of O=C(NCCNc1ccc2ccccc2c1)c1cccn2c(=O)c3sccc3nc12 under cell number change [%]: -17.5
# Value of Cc1ccc2c(COC(=O)c3ccccc3Cl)cc(=O)oc2c1 under AC50 [2]: 0.00461 µM [falling, full curve, poor fit]
# Value of COc1ccc(CNC(=O)CSc2nnc(C)n2-c2ccc(F)cc2)cc1 under cell number change [%]: 14.2

# From PubChem BioAssay AID2685 (National Center for Advancing Translational Sciences (NCATS), 2010)
